Data as given in the supplement of paper PMC6078165.

Tested on: BT20
Assay: relative JC-1 red fluorescence (viability) vs pre-drug, coculture with fibroblast (fraction); higher = more viable cancer cells
Protocol: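 JC-1 labelled TNBC cells cocultured 1:1 (1,500 cells each) with CellTrace Violet stained primary or stromal fibroblasts in 384-well plates in FluoroBrite medium, treated with one of 42 anticancer drugs at 0.1, 1, 10 or 100 uM. JC-1 red fluorescence (mitochondrial integrity in cancer cells only) was read by plate reader every 8 h for 72 h. Values are normalised to each well's pre-drug value. The stock of one drug was tenfold lower, so its dose labels may be too high.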

O=C(CCCCCCC(=O)Nc1ccccc1)NO [Vorinostat]
relative JC-1 red fluorescence
Settings | 8 h | 16 h | 24 h | 32 h | 40 h | 48 h | 56 h | 64 h | 72 h
0.1 µM, coculture fibroblast: C12385 | 0.913 | 0.808 | 0.739 | 0.6587 | 0.5929 | 0.5536 | 0.5242 | 0.5054 | 0.4853
0.1 µM, coculture fibroblast: H6013 | 0.9 | 0.885 | 0.876 | 0.844 | 0.822 | 0.813 | 0.832 | 0.819 | 0.806
0.1 µM, coculture fibroblast: H6019 | 0.8479 | 0.774 | 0.739 | 0.691 | 0.649 | 0.627 | 0.599 | 0.573 | 0.556
0.1 µM, coculture fibroblast: H6076 | 0.814 | 0.891 | 0.771 | 0.716 | 0.6702 | 0.633 | 0.609 | 0.598 | 0.579
0.1 µM, coculture fibroblast: H6231 | 0.821 | 0.915 | 0.77 | 0.698 | 0.647 | 0.597 | 0.551 | 0.524 | 0.497
0.1 µM, coculture fibroblast: HADF | 0.99035 | 0.874 | 0.815 | 0.782 | 0.749 | 0.705 | 0.7 | 0.691 | 0.678
0.1 µM, coculture fibroblast: HCFa | 0.888 | 0.818 | 0.7579 | 0.6861 | 0.628 | 0.59 | 0.564 | 0.535 | 0.496
0.1 µM, coculture fibroblast: HCPF | 0.912 | 0.913 | 0.827 | 0.772 | 0.703 | 0.6442 | 0.597 | 0.583 | 0.539
0.1 µM, coculture fibroblast: HHSteC | 0.937 | 0.9022 | 0.868 | 0.791 | 0.738 | 0.69 | 0.651 | 0.624 | 0.593
0.1 µM, coculture fibroblast: HMF | 0.819 | 0.844 | 0.741 | 0.679 | – | 0.58 | 0.5406 | 0.51503 | 0.49342
0.1 µM, coculture fibroblast: HPFa | 0.949 | 0.847 | 0.819 | 0.73 | 0.687 | 0.638 | 0.604 | 0.569 | 0.519
0.1 µM, coculture fibroblast: HUF | 0.935 | 0.8225 | 0.781 | 0.699 | 0.634 | 0.583 | 0.557 | 0.541 | 0.526
0.1 µM, coculture fibroblast: Hs5 | 0.881 | 0.901 | 0.794 | 0.739 | 0.6845 | 0.6373 | 0.601 | 0.563 | 0.535
0.1 µM, coculture fibroblast: Hs27A | 0.73 | 0.86 | 0.829 | 0.821 | 0.877 | 0.84 | 0.814 | 0.79 | 0.731
0.1 µM, coculture fibroblast: Hs343T | 0.75 | 0.9112 | 0.783 | 0.718 | 0.651 | 0.593 | 0.541 | 0.519 | 0.486
0.1 µM, coculture fibroblast: WS1 | 0.8327 | 0.7439 | 0.681 | 0.604 | 0.538 | 0.504 | 0.476 | 0.443 | 0.431
1 µM, coculture fibroblast: C12385 | 0.906 | 0.837 | 0.742 | 0.678 | 0.629 | 0.595 | 0.573 | 0.555 | 0.543
1 µM, coculture fibroblast: H6013 | 0.957 | 0.8865 | 0.82935 | 0.79326 | 0.7602 | 0.7472 | 0.746 | 0.74 | 0.74
1 µM, coculture fibroblast: H6019 | 0.8555 | 0.782 | 0.713 | 0.629 | 0.578 | 0.562 | 0.534 | 0.516 | 0.506
1 µM, coculture fibroblast: H6076 | 0.757 | 0.879 | 0.771 | 0.736 | 0.699 | 0.675 | 0.668 | 0.666 | 0.657
1 µM, coculture fibroblast: H6231 | 0.754 | 0.9253 | 0.8142 | 0.726 | 0.6721 | 0.6199 | 0.5892 | 0.5591 | 0.558
1 µM, coculture fibroblast: HADF | 0.901 | 0.912 | 0.828 | 0.804 | 0.773 | 0.736 | 0.716 | 0.703 | 0.68
1 µM, coculture fibroblast: HCFa | 0.866 | 0.852 | 0.861 | 0.862 | 0.826 | 0.786 | 0.747 | 0.733 | 0.704
1 µM, coculture fibroblast: HCPF | 0.874 | 0.9183 | 0.793 | 0.745 | 0.679 | 0.62 | 0.573 | 0.565 | 0.534
1 µM, coculture fibroblast: HHSteC | 0.907 | 0.821 | 0.797 | 0.721 | 0.681 | 0.651 | 0.631 | 0.619 | 0.598
1 µM, coculture fibroblast: HMF | 0.838 | 0.942 | 0.768 | 0.694 | 0.627 | 0.577 | 0.529 | 0.5 | 0.465
1 µM, coculture fibroblast: HPFa | 0.925 | 0.8301 | 0.8371 | 0.755 | 0.7378 | 0.7061 | 0.6966 | 0.6887 | 0.662
1 µM, coculture fibroblast: HUF | 0.899 | 0.801 | 0.725 | 0.637 | 0.584 | 0.537 | 0.514 | 0.5 | 0.486
1 µM, coculture fibroblast: Hs5 | 0.791 | 0.877 | 0.7875 | 0.7163 | 0.671 | 0.622 | 0.577 | 0.549 | 0.521
1 µM, coculture fibroblast: Hs27A | 0.754 | 0.866 | 0.924 | 0.924 | 0.88 | 0.862 | 0.857 | 0.84 | 0.812
1 µM, coculture fibroblast: Hs343T | 0.909 | 0.8861 | 0.739 | 0.682 | 0.626 | 0.583 | 0.549 | 0.549 | 0.528
1 µM, coculture fibroblast: WS1 | 0.862 | 0.789 | 0.718 | 0.642 | 0.578 | 0.548 | 0.513 | 0.488 | 0.473

The reference is the same well before dosing, and untreated signal decays as well.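 Fibroblast labels denote human fibroblasts, mainly primary ones from uterus (C12385, HUF), lung (H6013), bone (Hs27A), adrenal (HADF) and skin (WS1), plus mammary HMF and breast cancer-associated Hs343T. Cancer cells are basal-like or mesenchymal-like triple-negative breast cancer lines. A hit is a response shift exceeding 3x replicate standard deviation. The tissue of the other fibroblasts is not given here.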
